Measured values as given in patent US6627650B2, “Indenoindolone compounds” (Les Laboratoires Servier, priority 2001, dated 2003).
Where a name gives a salt, the structure may show the parent alone. Some results were stated once for a whole list of compounds, not compound by compound.

System: P388 (murine leukaemia)
Experiment: In vivo anti-tumour activity on P388 leukaemia
Settings: from a dose of 50 mg/kg, intravenous route on days 1, 5 and 9, BDF1 mice, P388 i.p.

**Q.** How did the “T/C (survival time)” value turn out when `C#CC(O/N=C1/c2cc(OC)c(OC)cc2-c2[nH]c3ccc(OCCN(C)C)cc3c21)c1ccccc1` (stereo not shown) [Example 1, (10Z)-8-(2-Dimethylaminoethoxy)-2,3-dimethoxyindeno[1,2-b]indole-10(5H)-one O-(1-Phenyl-2-Propynyl)oxime Hydrochloride] was run?
**A.** The value was ≥ 200%.
